# Several values for one entry are separate records, joined by “and”; a condition that tells them apart may be missing. Equal entries are not always repeated. In all, about 78,000 compounds went through this assay and about 1,800 (2.3%) were called active. Inconclusive results, whose numbers are uncertain, are shown with a selection of clear calls. No stated cut-off is given here; in the data, active means inhibition above about 30%; inconclusive means mostly about 10% to 28%; inactive means weaker than that.
# By UniProt entry, the sequences of proteins in these tests, tags left out. Where a name states a change or a piece, a line headed by the entry shows the natural chain unless it says otherwise.
# UniProt Q01638: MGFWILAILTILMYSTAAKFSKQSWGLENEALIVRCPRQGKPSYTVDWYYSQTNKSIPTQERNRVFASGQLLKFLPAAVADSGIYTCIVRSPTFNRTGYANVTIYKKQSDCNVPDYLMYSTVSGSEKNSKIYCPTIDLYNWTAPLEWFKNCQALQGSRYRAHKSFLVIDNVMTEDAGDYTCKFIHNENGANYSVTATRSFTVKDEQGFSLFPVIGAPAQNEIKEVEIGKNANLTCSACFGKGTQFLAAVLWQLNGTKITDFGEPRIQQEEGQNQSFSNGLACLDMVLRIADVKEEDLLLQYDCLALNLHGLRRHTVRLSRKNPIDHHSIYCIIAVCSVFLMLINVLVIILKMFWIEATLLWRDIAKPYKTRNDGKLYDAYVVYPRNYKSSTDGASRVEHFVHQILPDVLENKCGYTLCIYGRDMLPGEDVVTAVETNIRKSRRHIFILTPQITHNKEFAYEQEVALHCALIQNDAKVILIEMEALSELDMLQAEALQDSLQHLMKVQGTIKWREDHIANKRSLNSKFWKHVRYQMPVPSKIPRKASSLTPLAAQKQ
# Molecular target: Interleukin-1 receptor-like 1 (Homo sapiens) (UniProt Q01638)
# Test: blocks human ST2 binding to IL-33, primary screen, biochemical, AlphaLISA (AID 1259354)
# Conditions: AlphaLISA ST2-Fc/biotin-IL-33 interaction, 1 h; at 17 µM, active compounds read high
row,SMILES,inhibition
1,Cc1nc(CN2CCC3(CCCO3)CCC2=O)co1 (configuration not stated),inconclusive: 26%
2,CS(=O)(=O)n1cnc2ccccc21,inactive
3,CC1CCCC(C)N1S(=O)(=O)c1ccc(N)cc1 (configuration not stated),inactive
4,O=C1NC(=NS(=O)(=O)c2ccccc2)S/C1=C/c1cccnc1,inactive
5,CN(CCNC(=O)C1CC(=O)N(C2CCCC2)C1)S(C)(=O)=O (configuration not stated),inconclusive: 13%
6,COc1ccc(/C=C2/C(=O)N(c3ccc(Cl)c(Cl)c3)N=C2C)cc1OC,active: 65%
7,COC(=O)[C@@H](C)NC(=O)[C@H]1CN(S(=O)(=O)c2ccccc2)CCN1C(=O)c1cccs1,inactive
8,Cc1cc(C)c(C(=O)N(C)Cc2nc3ccc(Cl)cc3[nH]2)c(=O)[nH]1,inactive
9,Cc1cccc(N=Cc2cc3c(cc2[N+](=O)[O-])OCO3)c1C,active: 39%
10,COc1cc(/C=C2\C(=O)Nc3ccc(Br)cc32)cc(Br)c1OC,inconclusive: 24%
11,COc1ccc(NC(=O)c2cc3c(=O)oc4ccccc4c3s2)cc1Cl,inactive
12,CC(=O)Nc1nc(-c2c(F)c(F)c(F)c(F)c2F)cs1,inconclusive: 16%
13,COC(=O)[C@@H](NC(=O)CCC1(Cc2ccc(OC)cc2F)CCC(=O)N1)C(C)C (some centres not stated),inactive
14,O=C1C(=O)N(C/C=C/c2ccccc2)c2ccccc21,inconclusive: 14% and inconclusive: 11%
15,CN1CCN(C(=O)CCC2CCCN(Cc3ccc4ccccc4c3)C2)CC1 (configuration not stated),inconclusive: 14%
16,CCCCn1c(=O)c2c(nc3n2CCN3c2ccccc2)n(C)c1=O,inactive
17,CCN(CC)c1ccc(NC(=O)c2ccccc2Br)c(C)c1,inactive
18,COc1ccc2oc(=O)c(C(=O)N3CCN(C/C=C/c4ccccc4)CC3)cc2c1,inactive
19,CSc1ccc2c(c1)N(CCC1CCCCN1C)c1ccccc1S2 (configuration not stated),inconclusive: 17%
20,CN(CC1CCCNC1)C(=O)c1ccc(CSc2ccccn2)cc1 (configuration not stated),inconclusive: 20%
21,CC(=O)N1CCC(Oc2ccc(Cl)cc2C(=O)NCCc2ccc(F)cc2)CC1,inconclusive: 13%
22,Cc1cc(N2CCOCC2)cc(C)[n+]1OC(=O)N(c1ccccc1)c1ccccc1,inactive
23,CCC(C)N=Cc1c(NCCO)nc2c(C)cccn2c1=O (configuration not stated),inactive
24,Cc1ccc(S(=O)(=O)Nc2ccc(I)cc2)cc1C(N)=O,inactive
25,Cc1ccc2c(-c3ccc([N+](=O)[O-])cc3)cc(=O)[nH]c2c1,inconclusive: 14%

# A second format for some results above.
row	SMILES	inhibition
9	Cc1cccc(N=Cc2cc3c(cc2[N+](=O)[O-])OCO3)c1C	active: 39%
11	COc1ccc(NC(=O)c2cc3c(=O)oc4ccccc4c3s2)cc1Cl	inactive
12	CC(=O)Nc1nc(-c2c(F)c(F)c(F)c(F)c2F)cs1	inconclusive: 16%
25	Cc1ccc2c(-c3ccc([N+](=O)[O-])cc3)cc(=O)[nH]c2c1	inconclusive: 14%

# (cont.)

row,SMILES,inhibition
1,COc1ccccc1/C=C1/C=C(c2ccc(C)cc2C)OC1=O,inconclusive: 24%
2,C=CCOC(=O)C1=C(C)N=C2SCCC(=O)N2C1c1ccc(OC(C)=O)cc1 (configuration not stated),inconclusive: 12%
3,CN(C)c1ccc(CN2C[C@H](O)C[C@H]2c2nc(Cc3ccccc3)no2)cc1,inconclusive: 17%
4,CN(Cc1n[nH]c(=O)n1Cc1ccc(Cl)cc1Cl)S(C)(=O)=O,inconclusive: 13%
5,O=C(Nc1cc2c(ccc3ccccc32)oc1=O)c1ccc(Cl)cc1,inactive
6,Cc1ccccc1-n1nc2c(c1NC(=O)COc1ccc(Cl)cc1Cl)CS(=O)C2 (configuration not stated),inactive
7,O=C(Nc1ccccc1C(F)(F)F)c1ccc(Cl)cc1[N+](=O)[O-],inconclusive: 15%
8,CCCc1nc2nc[nH]n2c(=O)c1NC(=O)Nc1cccc(C(F)(F)F)c1,inactive
9,Cc1csc2nc(CSc3ccc(Cl)cc3)cn12,inconclusive: 19%
10,CCC(O)C1CCN(C(=O)c2cc(COc3ccc(F)cc3F)on2)CC1 (configuration not stated),inconclusive: 10%
11,COc1ccc(CC(=O)NC2CCCCC2C)cc1 (configuration not stated),inactive
12,COc1ccccc1C(=O)Nc1nccs1,inactive
13,CC(C)CN1C(=O)N(Cc2ccccc2)C2(CCN(CCc3ccccc3)CC2)C1=O,inconclusive: 12%
14,COc1ccc(CN2CCN(c3ccccc3OC)CC2)cc1OC,active: 30%
15,COc1cccc(C2C(C(C)=O)=C(O)C(=O)N2CCc2ccccc2)c1 (configuration not stated),inactive
16,CCCOc1ccc(C(=O)N2CCN(c3ccc([N+](=O)[O-])cc3)CC2)cc1,inconclusive: 24%
17,c1ccc(NCc2nc3ccccc3n2CCOc2ccccc2)cc1,inconclusive: 18%
18,O=C(NCc1ccc2c(c1)OCO2)[C@H](CSCc1ccccc1)N1Cc2ccccc2C1=O,inactive
19,CCOC(=O)c1c(NC(=O)c2sc3ccccc3c2Cl)sc2c1CCN(C)C2,active: 38%
20,CC(=O)N1N=C(c2cccs2)OC12CCCCC2,inconclusive: 18%
21,COc1cccc(C(=O)Nc2c(-c3ccccc3)nc3ccccn23)c1OC,inactive
22,O=C1C(Nc2ccc(O)cc2)=C(n2nnc3ccccc32)C(=O)c2ccccc21,active: 47%
23,COc1ccccc1-n1c(O)c(C=Nc2ccc(C(F)(F)F)cc2)c2ccccc2c1=O,active: 33%
24,O=C(O)/C=C/c1ccc(S(=O)(=O)Nc2cccnc2)cc1,inactive
25,COc1ccc(NC(=O)CCC2CCCN(Cc3nc4c(s3)CCCC4)C2)c(C)c1 (configuration not stated),inactive

row,SMILES,inhibition
1,c1cncc(NCCCNc2nc(-c3ccncc3)nc3c2CCNC3)c1,inconclusive: 20%
2,C=CCN(CC=C)S(=O)(=O)c1ccc(C(=O)Nc2nc3c(s2)CCc2ccccc2-3)cc1,inconclusive: 11%
3,O=C(O)CSc1nnc(Cn2cccn2)n1-c1cccc2ccccc12,inconclusive: 11%
4,C=C(C)COc1ccc(C(=O)NCCc2nc(C)c3c(n2)CCC3)cc1,inactive
5,c1ccc2c(c1)OCC(CSc1nc3ccccc3[nH]1)O2 (configuration not stated),inconclusive: 11%
6,COc1ccc(NC(=O)c2oc3ccccc3c2NC(=O)C(C)Oc2ccccc2)c(OC)c1 (configuration not stated),inactive
7,O=C(Nc1ccc(Oc2ccccc2)cc1)N[C@H]1CO[C@H]2[C@@H]1OC[C@H]2OCc1ccccc1,inconclusive: 16%
8,CN1CC2(CCN(C(=O)c3c4c(nn3C)CCCC4)C2)OC1=O (configuration not stated),inconclusive: 20%
9,O=C1c2cc3ccccc3cc2C(=O)N1c1ccc(Br)cc1,inconclusive: 14%
10,COC(=O)c1c(C)oc2ccc(OC(=O)c3ccco3)cc12,inactive
11,COc1ccc(OCc2nc(C#N)c(N3CCCC3)o2)cc1,active: 49%
12,COc1ccc(C2N3CC4(C)CN2CC(C)(C3)C4O)cc1OC (configuration not stated),inconclusive: 16%
13,O=C(O)CN=C1NC2(CCCCC2)Cc2ccccc21,inconclusive: 13%
14,CC(=O)NC1C(=O)N=C(SCC(=O)N2CCCCC2)NC1=O (configuration not stated),inconclusive: 13%
15,COC[C@H]1CCCN1[C@@H]1[C@H](O)[C@H](CO)O[C@@H]1CNC(=O)c1ccco1,inactive
16,Cc1ccc(C2CC(c3cccs3)=NN2C(=O)CSc2c[nH]c3ccccc23)cc1 (configuration not stated),inconclusive: 14%
17,CCN1C(=O)CSc2ccc(C(=O)NC3CCCCC3C)cc21 (configuration not stated),inconclusive: 13%
18,Cc1oc(-c2cccc(C(F)(F)F)c2)nc1Cn1ccnc1C,inconclusive: 12%
19,COc1ccc(CCNC(=O)c2c[nH]n3c(=O)c(Cc4ccccc4F)c(C)nc23)cc1OC,inconclusive: 14%
20,Cc1ccc(/C=C2\N=C(c3ccccc3C)OC2=O)o1,active: 65%
21,CC(C)c1ccc2c(c1)c(SC(C)(C)C)c(CC(C)(C)C(=O)O)n2Cc1ccc(Cl)cc1,inconclusive: 10%
22,Cc1cc(-c2cc(C3CCN(C(=O)C4CC(=O)C4)C3)ccn2)ccc1F (configuration not stated),inconclusive: 11%
23,CN1CCC2(CC1)CN(C(=O)c1nc3ccccc3[nH]1)CCN2C,inactive
24,Cn1c(NCc2ccco2)nc2c1c(=O)n(Cc1ccc(F)cc1)c(=O)n2C,inconclusive: 25%
25,CN1C[C@@H](NC(=O)CCC(=O)O)C[C@H]1c1nc(-c2ccccc2)no1,inactive

# Reprinted at random: 5 entries already listed
row,SMILES,inhibition
25,CN1C[C@@H](NC(=O)CCC(=O)O)C[C@H]1c1nc(-c2ccccc2)no1,inactive
6,COc1ccc(NC(=O)c2oc3ccccc3c2NC(=O)C(C)Oc2ccccc2)c(OC)c1 (configuration not stated),inactive
7,O=C(Nc1ccc(Oc2ccccc2)cc1)N[C@H]1CO[C@H]2[C@@H]1OC[C@H]2OCc1ccccc1,inconclusive: 16%
5,c1ccc2c(c1)OCC(CSc1nc3ccccc3[nH]1)O2 (configuration not stated),inconclusive: 11%
11,COc1ccc(OCc2nc(C#N)c(N3CCCC3)o2)cc1,active: 49%

# Following part:

row,SMILES,inhibition
1,CC1(C)CC(=O)C2=C(C1)OC(N)=C(C#N)C21CCCC1,inconclusive: 11%
2,CCn1ccnc1Cn1cnc(-c2ccccc2)c1-c1c(OC)cccc1OC,inactive
3,O=C(NCCc1ccccc1)c1ccc([N+](=O)[O-])o1,inconclusive: 12%
4,NC(=O)c1cnc2n1CCN(C(=O)c1cc3c(s1)CCCCC3)C2,inconclusive: 11%
5,O=C(CSc1nc2ccccc2s1)Nc1nc2ccc([N+](=O)[O-])cc2s1,inactive
6,COc1cc(CN2CC(=O)N(Cc3cccnc3)CC(OC)C2)ccc1OCc1ccccc1 (configuration not stated),inactive
7,O=C(COc1ccccc1)N1CCN=C1SCc1c(F)cccc1Cl,inactive
8,O=C(Nc1ccc([N+](=O)[O-])cc1)c1ccc(Cl)cc1Cl,inconclusive: 10%
9,CC1(C)CC(=O)C2=C(C1)NC1=C(C(=O)c3ccccc31)C2c1ccc(Br)cc1 (configuration not stated),inconclusive: 19%
10,COc1cc(C)c(C(C)C)cc1S(=O)(=O)n1nnc2ccccc21,inactive
11,CN1C(=O)c2c(sc3c2CCCC3)NC1c1ccc(O)cc1 (configuration not stated),inconclusive: 26%
12,CCCCNC(=O)CSc1nc2nc(C)c(Cc3ccc(C)cc3)c(C)n2n1,inactive
13,O=C(NC[C@H]1O[C@@H](CC(=O)N2CCc3ccccc32)[C@H](O)[C@@H]1O)Nc1ccccc1,inconclusive: 13%
14,CC(O)CNc1nc2c(c(=O)n(C)c(=O)n2C)n1Cc1c(Cl)cccc1Cl (configuration not stated),inconclusive: 17%
15,O=C(Nc1ccc(N=Cc2ccc(O)cc2O)cc1)c1ccc(F)cc1,inconclusive: 17%
16,Cc1ccc(S(=O)(=O)N2CC(C)OC(C)C2)cc1 (configuration not stated),inactive
17,O=C(c1cn(Cc2cccc3ccccc23)nn1)N1CCN(c2nc3ccccc3o2)CC1,inactive
18,Cc1cc2c(=O)oc(-c3ccc(C(C)(C)C)cc3)nc2s1,inconclusive: 12%
19,Nc1ncnc(N2CCOCC2)c1[N+](=O)[O-],inactive
20,O=C(c1ccc(C(F)(F)F)cc1)N(Cc1ccccn1)CC1CCCO1 (configuration not stated),inactive
21,CCC(CC)C(=O)Nc1ccccc1NC(C)=O,inconclusive: 12%
22,CCc1ccccc1NC(=O)CN1C(=O)CC(c2ccccc2)=Nc2ccccc21,inactive
